Laboratory results: patent US20220274947A1, “NOVEL HETEROARYL-TRIAZOLE COMPOUNDS AS PESTICIDES” (Bayer Aktiengesellschaft, priority 2019, published 2022)
For part of these data: The name of at least one read-out is uncertain. Some results were stated once for a whole list of compounds, not compound by compound.

Tests used:
[1] = test system: Nezara viridula; assay: Nezara viridula spray test; type: in vivo; details: barley plants, larvae, after 4 days
Experimental: Nezara viridula—Spray Test Solvent: 78.0 parts by weight of acetone • • 1.5 parts by weight of dimethylformamide Emulsifier: alkylarylpolyglycol ether
To produce a suitable preparation of active compound, 1 part by weight of active compound is mixed with the stated amount of solvent, and the concentrate is diluted with water, containing an emulsifier concentration of 1000 ppm, to the desired concentration. Further test concentrations are prepared by dilution with emulsifier containing water.
Barley plants (Hordeum vulgare) infested with larvae of the southern green stink bug (Nezara viridula) are sprayed with a test solution containing the desired concentration of the active ingredient.
After 4 days mortality in % is determined. 100% means all the stink bugs have been killed; 0% means none of the stink bugs have been killed.

[2] = test system: Rhipicephalus sanguineus; assay: Rhipicephalus sanguineus in-vitro contact test, adult brown dog ticks (RHIPSA Cont); type: in vivo; details: application rate 1 μg/cm^2 (=100 g/ha), after 48 hours
Experimental: Rhipicephalus sanguineus-In-Vitro Contact Tests with Adult Brown Dog Ticks ([…] Cont) 9 mg compound is solved in 1 mL acetone and diluted with acetone to the desired concentration. 250 μL of the test solution is filled in 25 mL glass test tubes and homogeneously distributed on the inner walls by rotation and tilting on a shaking device (2 h at 30 rpm). […] After 48 hours efficacy is determined. The ticks are patted on the ground of the tubes and are incubated on a heating plate at 45-50° C. for at most 5 minutes. Immotile or uncoordinated moving ticks, which are not able to escape the heat by climbing upwards, are marked as dead or moribund.

With COc1nc([C@H](C)NC(=O)c2cc(C(F)(F)F)cc(C(F)(F)F)c2)n(-c2ccc(C#N)cn2)n1 [I-11] the “activity (mortality)” value ([1]; application rate 500 g/ha) was 90%.
In the case of C[C@H](NC(=O)c1cc(Br)cc(Br)c1)c1ncnn1-c1ccc(C#N)cn1 [II-13], the “activity (efficacy: 100% means all ticks are dead or moribund)” value [2] is reported as 80%.
Cc1nc([C@H](C)NC(=O)c2cc(Br)cc(C(F)(F)F)c2)n(-c2ccc(C#N)cn2)n1 [II-32] was tested, and the “activity (mortality)” value ([1]; application rate 100 g/ha) was 90%.
